Measured values reported in patent US20160010138A1, “RAPID DETERMINATION OF MICROBIAL DROWTH AND ANTIMICROBIAL SUSEPTABILITY” (priority 2013, published 2016).
At least one structure is not confirmed: it was looked up by name or label, or the drawing left a doubt.

System: Enteric
Experiment: MADM (BACcel) phenotype/sensitivity by growth analysis, surveillance mini-BAL
Type: cell-based
Conditions: Spec# 005-D7, BACcel ID Enteric, 1.26 × 10^5 CFU/ml
Experimental: Adult MICU patients with identified surrogate were included within 72 hours of intubation and if anticipated to require MV for >48 h. Moribund state or pregnancy were exclusions. Surveillance mini-BAL (Combicath, Plastimed) was performed on Day 1, 3, 5, 7 and 10 of MV. Samples were split and processed for both a) routine respiratory quantitative microbiological culture and sensitivity assays (>48 h result availability) and b) rapid (<8 hour) flowcell/surface-capture assays using the MADM system. Viable microorganisms were identified using growth analysis enhanced by a focused VAP antibody panel (S. aureus, P. aeruginosa, A. baumannii). Untypable organisms were also reported. Sensitivity was assessed using growth analysis. Attending physicians were blinded to MADM system results.
BAL sample were prepared, removing debris and separating microorganisms from other sample material. Sample microorganisms were introduced into a multichannel fluidic cassette as described elsewhere herein. […]
The automated digital microscopy system was used to perform darkfield imaging of 10 fields of view every 10 minutes for 180 minutes in each flowcell channel. […] Quantitation was performed by counting identified microorganisms and computing original specimen CFU/mL.

Question: `CCC[C@@H]1C[C@@H](C(=O)N[C@@H]([C@H]2O[C@H](SC)[C@H](O)[C@@H](O)[C@H]2O)[C@H](C)Cl)N(C)C1` [CLI, clindamycin] was tested. Which “Phenotype, sensitivity (growth in antibiotic)” value did it give?
Answer: all growth
